Test results reported in patent US20140039803A1, “Method for Rapid Identification of Drug Targets and Drug Mechanisms of Action in Human Cells” (THE ROCKEFELLER UNIVERSITY, priority 2011, published 2014).

System: Kinesin-5
Assay: RT-PCR and sequencing of target gene in resistant clones
Set-up: species or system human
Details: HCT-116 clones resistant to the inhibitor

SMILES | fraction of resistant clones with kinesin-5 mutations [%]
N[C@@H](CSC(c1ccccc1)(c1ccccc1)c1ccccc1)C(=O)O [STLC, S-trityl-L-cysteine] | ~30
c1ccc(C2(c3nc(-c4ccncc4)cs3)CC2)cc1 [PCTP, 4-(2-(1-phenylcyclopropyl)thiazol-4-yl)pyridine] | ~15
